Patent US6652921B2, “Wood containing fixed sorbic acid or sorbic acid salts” (Nutrinova Nutrition Specialties & Food Ingredients GmbH, priority 2000, dated 2003)

Test: Sorbic acid content in a layer about 2 mm deep of sprucewood boards after dipping in fixing solution and potassium sorbate solution
Conditions: per wood surface; for Amount of sorbic acid: Variant A (fixing solution first, then potassium sorbate 5% by weight); for Sorbic acid: Variant B (potassium sorbate solution first, then fixing solution)

SMILES | Amount of sorbic acid (wood moisture 9.3%) [g/m^2] | Amount of sorbic acid (wood moisture 18.8%) [g/m^2] | Amount of sorbic acid (wood moisture 19.4%) [g/m^2] | Sorbic acid (wood moisture 9.3%) [g/m^2] | Sorbic acid (wood moisture 18.8%) [g/m^2] | Sorbic acid (wood moisture 19.4%) [g/m^2]
[Ca+2].[Cl-].[Cl-] [CaCl2] | 24 | 34 | 31 | 13 | 14 | 11
O=C(O)CC(O)(CC(=O)O)C(=O)O [Citric acid] | 37 | 40 | 38 | 13 | 17 | 18
CC(O)C(=O)O (stereo not shown) [Lactic acid] | 25 | 28 | 33 | 9 | 12 | 14
O=S(=O)([O-])[O-].[Mg+2] [MgSO4] | 23 | 23 | 23 | 14 | – | –
